From PMC4581157

The chains behind the UniProt entries cited, without tags or fusion partners. Where a name states a change or a piece, a line headed by the entry shows the natural chain unless it says otherwise.
UniProt A1Z6I7: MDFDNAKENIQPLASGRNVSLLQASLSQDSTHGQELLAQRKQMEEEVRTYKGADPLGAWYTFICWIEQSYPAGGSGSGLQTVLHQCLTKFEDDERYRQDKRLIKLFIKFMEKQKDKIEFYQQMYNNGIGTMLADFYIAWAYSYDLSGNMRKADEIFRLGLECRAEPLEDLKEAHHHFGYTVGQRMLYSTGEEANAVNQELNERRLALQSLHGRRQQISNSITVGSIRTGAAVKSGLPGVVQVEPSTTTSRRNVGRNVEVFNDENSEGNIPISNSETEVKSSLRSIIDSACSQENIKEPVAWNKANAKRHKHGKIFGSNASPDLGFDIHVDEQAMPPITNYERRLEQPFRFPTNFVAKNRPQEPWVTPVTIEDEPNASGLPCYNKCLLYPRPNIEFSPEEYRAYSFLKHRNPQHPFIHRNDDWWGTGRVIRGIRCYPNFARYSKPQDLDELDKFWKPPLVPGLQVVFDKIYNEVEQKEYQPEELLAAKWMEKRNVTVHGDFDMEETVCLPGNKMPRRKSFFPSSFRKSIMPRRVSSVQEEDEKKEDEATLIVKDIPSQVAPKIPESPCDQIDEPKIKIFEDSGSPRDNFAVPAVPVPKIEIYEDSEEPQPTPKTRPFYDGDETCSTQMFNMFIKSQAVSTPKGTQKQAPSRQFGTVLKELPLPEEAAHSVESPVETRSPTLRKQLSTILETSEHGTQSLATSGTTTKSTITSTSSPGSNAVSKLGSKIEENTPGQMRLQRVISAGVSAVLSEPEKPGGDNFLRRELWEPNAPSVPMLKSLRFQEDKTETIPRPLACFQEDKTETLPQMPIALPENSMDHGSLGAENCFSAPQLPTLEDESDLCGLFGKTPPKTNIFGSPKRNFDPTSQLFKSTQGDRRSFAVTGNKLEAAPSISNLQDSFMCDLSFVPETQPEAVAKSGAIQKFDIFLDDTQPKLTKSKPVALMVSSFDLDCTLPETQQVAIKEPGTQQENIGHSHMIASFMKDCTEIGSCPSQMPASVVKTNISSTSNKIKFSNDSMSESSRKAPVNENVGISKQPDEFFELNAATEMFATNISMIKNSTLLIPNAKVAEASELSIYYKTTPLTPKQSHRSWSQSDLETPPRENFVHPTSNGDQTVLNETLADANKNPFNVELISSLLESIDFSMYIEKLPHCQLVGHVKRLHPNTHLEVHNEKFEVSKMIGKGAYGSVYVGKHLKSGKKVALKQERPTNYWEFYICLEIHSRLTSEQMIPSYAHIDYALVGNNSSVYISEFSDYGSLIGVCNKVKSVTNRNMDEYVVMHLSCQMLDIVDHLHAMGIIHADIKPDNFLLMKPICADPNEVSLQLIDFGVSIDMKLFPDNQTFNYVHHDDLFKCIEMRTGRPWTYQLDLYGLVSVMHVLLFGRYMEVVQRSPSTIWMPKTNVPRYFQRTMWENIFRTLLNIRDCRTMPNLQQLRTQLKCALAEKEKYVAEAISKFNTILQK

Biological target: T1, Fzy protein (Drosophila melanogaster) (UniProt Q24044)
T1 sequence: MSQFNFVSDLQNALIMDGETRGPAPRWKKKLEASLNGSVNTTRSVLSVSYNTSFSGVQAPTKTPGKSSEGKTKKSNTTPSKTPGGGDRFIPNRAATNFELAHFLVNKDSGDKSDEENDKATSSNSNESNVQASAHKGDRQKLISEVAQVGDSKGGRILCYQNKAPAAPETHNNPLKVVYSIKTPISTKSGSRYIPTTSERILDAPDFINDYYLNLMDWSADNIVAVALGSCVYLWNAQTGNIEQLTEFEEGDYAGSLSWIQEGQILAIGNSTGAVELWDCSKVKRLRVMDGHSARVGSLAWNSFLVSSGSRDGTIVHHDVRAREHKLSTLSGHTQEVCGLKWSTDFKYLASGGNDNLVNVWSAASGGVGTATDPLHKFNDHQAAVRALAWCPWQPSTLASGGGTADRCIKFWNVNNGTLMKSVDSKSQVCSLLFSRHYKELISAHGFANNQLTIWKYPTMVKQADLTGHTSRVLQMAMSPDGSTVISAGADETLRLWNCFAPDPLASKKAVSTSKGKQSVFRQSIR
Experiment: affinity purification with mass spectrometry; affinity purification of protein complexes from Drosophila cultured cells or Drosophila embryos; Mascot search against the FlyBase protein database, significance threshold p < 0.05, ions score cut-off 30

binding	Substance
binds	BubR1 (from UniProt A1Z6I7)
binds	Spc105R (Drosophila melanogaster)

These are yes or no findings as the source states them, for the method shown. Binding seen in cells or lysates may run through a third protein. Here binding means that the protein was enriched with, or labelled near, the bait; the list need not be complete.
